Measured values taken from paper PMC3620317, “Optimisation of Embryonic and Larval ECG Measurement in Zebrafish for Quantifying the Effect of QT Prolonging Drugs” (PLoS ONE, 2013).

Test system: 3 dpf zebrafish larvae
Assay: ECG recording in zebrafish larvae before and after drug treatment
Conditions: from QTc percentage change before and after drug treatment

Row | SMILES | Mean Z-factor score (Terfenadine 0.1 µM) | Mean Z-factor score (Terfenadine 0.3 µM) | Mean Z-factor score (Terfenadine 10 µM) | Mean Z-factor score (Terfenadine 30 µM) | Mean Z-factor score (Terfenadine 30 µM, listed as Terfenadine) | Mean Z-factor score (Terfenadine 50 µM) | Mean Z-factor score (Terfenadine 50 µM, listed as Terfenadine) | Mean Z-factor score (Verapamil 25 µM)
1 | CC(C)(C)c1ccc(C(O)CCCN2CCC(C(O)(c3ccccc3)c3ccccc3)CC2)cc1 (centres unmarked) [terfenadine] | −1.671 | −0.254 | −0.371 | 0.68 | 0.676 | 0.78 | 0.784 | –
2 | COc1ccc(CCN(C)CCCC(C#N)(c2ccc(OC)c(OC)c2)C(C)C)cc1OC (centres unmarked) [verapamil] | – | – | – | – | – | – | – | −6.747
